Measurements taken from PubChem BioAssay AID493014 (National Center for Advancing Translational Sciences (NCATS), 2011).
The other results are listed elsewhere or left out. Shown are side measurements of this screen, not its main read-out; they come without a call. The list favours compounds with an active or inconclusive main result. Words in brackets tell the shape of the fitted curve; partial curves, single points and poor fits give uncertain potencies.

Assay: qHTS Assay to Find Inhibitors of Chronic Active B-Cell Receptor Signaling
Details: ABC-DLBCL IkBa-CBG/CBR reporter, luminescence ratio (green luciferase fused to IkBa over red control in TMD8 lymphoma cells), 4 h
Procedure, shortened: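 Cell line TMD8 (human ABC DLBCL), stably expressing tet-inducible CBG68-IkBa fusion and CBR; IMDM/0.5% FBS; cpd up to 46 uM; dox induction, 4 h, 37C/5% CO2; dual luminescence; green/red ratio; MG132 control.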

[1] = measured here: CBR red luminescence, cell number
[2] = measured here: IkBa-CBG green luminescence

| SMILES | AC50 [1] | AC50 [2] |
| --- | --- | --- |
| Cc1nc2ccccc2c(N)c1C(=O)/C=C/c1ccccc1 | 8.91 µM [falling, partial curve, poor fit] |  |
| CCOC(=O)N1C(=O)C2(CCCCC2)N(c2ccccc2Cl)C1=S | 29.1 µM [falling, single point] |  |
| C=CCn1c(CNC(=O)c2ccco2)nnc1SCC(=O)c1ccc(F)cc1 | 12.6 µM [falling, partial curve, poor fit] |  |
| CNC(=O)COC(=O)c1c2c(nc3ccccc13)CCC2 | 3.55 µM [falling, partial curve, poor fit] | 5.62 µM [rising, full curve, poor fit] |
| O=C(N/N=C/c1c[nH]c2ccccc12)C1COc2ccccc2O1 (stereo not drawn) | 23.1 µM [rising, partial curve, poor fit] |  |
| N#CC(C(=O)Nc1ccccc1)=C1Nc2ccccc2N1 | 16.4 µM [falling, single point] |  |
| CCOc1ccc2nc(SCC3CC3(Cl)Cl)[nH]c2c1 (stereo not drawn) | 3.16 µM [rising, partial curve, poor fit] |  |
| COc1ccc(N2CCN(C(=O)c3ccc4c(c3)N(Cc3cccc(Cl)c3)C(=O)c3ccccc3S4(=O)=O)CC2)cc1 | 3.16 µM [rising, full curve] |  |
| CCc1cc(C(=O)OC)c(N2C(=O)C3C4C=CC(C4)C3C2=O)s1 (stereo not drawn) | 18.4 µM [rising, single point] |  |
| CCOC(=O)N1CCN(C(=O)Cc2cccc3ccccc23)CC1 | 6.31 µM [rising, single point] |  |
| Cc1ccc(NC(=O)c2ccn(C)n2)c(Br)c1 | 9.2 µM [rising, partial curve, poor fit] |  |
| CCCN(CCC)CCNC(=O)C(NS(=O)(=O)c1ccc2c(c1)CCC(=O)N2)c1ccccc1 (stereo not drawn) | 3.66 µM [rising, single point] |  |
| Cc1ccnn1-c1ccc(C(=O)OCC(=O)Nc2ccc(F)cc2)cc1 | 29.1 µM [rising, single point] |  |
| Cc1ccc(OS(=O)(=O)c2c(C)nn(C)c2Cl)c(C)c1 | 14.1 µM [rising, partial curve, poor fit] |  |
| C/C=C/c1ccccc1OCc1ccc(C(=O)O)o1 | 29.1 µM [falling, single point] |  |
| CN1C(=O)/C(=C/c2ccccc2OCc2cccc(F)c2)N(C)C1=S | 20.6 µM [falling, partial curve, poor fit] |  |
| COc1ccc(OCCOC(=O)c2ccc(F)c(S(=O)(=O)N3CCOCC3)c2)cc1 | 0.58 µM [rising, full curve, poor fit] |  |
| NC(=O)c1ccc(Nc2nnc(-c3ccc(O)cc3)c3ccccc23)cc1 | 11.2 µM [falling, partial curve] |  |
| COc1ccc(/C=N/NC(=O)c2ccccc2Cl)cc1CSc1nc2ccccc2s1 | 11.6 µM [falling, partial curve] |  |
| CCC1CCCN1Cn1cnc2c([nH]c3ccccc32)c1=O (stereo not drawn) | 2.51 µM [falling, partial curve, poor fit] |  |
| CCCCc1ccc(-c2nc(NC(=O)C3C4CCC(O4)C3C(=O)O)sc2C)cc1 (stereo not drawn) | 11.2 µM [rising, partial curve] |  |
| Cc1ccc(-n2nc(C)c3c2OC(N)=C(C#N)C3c2ccc(C)o2)cc1 (stereo not drawn) | 18.4 µM [falling, partial curve, poor fit] |  |

| SMILES | AC50 [1] | AC50 [2] |
| --- | --- | --- |
| COc1cc(SC)ccc1C(=O)OCC(=O)NCCNC(=O)COC(=O)c1ccc(SC)cc1OC | 3.16 µM [falling, full curve] |  |
| Cc1cccc(-c2noc(CCC(=O)NCc3ccco3)n2)c1 | 20.6 µM [rising, single point] |  |
| O=C(Oc1c(CN2CCOCC2)cc(Cl)c2cccnc12)c1ccccc1Br | 2 µM [rising, full curve, poor fit] | 2 µM [falling, partial curve, poor fit] |
| Cc1c(/C=N/Nc2ccc([N+](=O)[O-])cn2)c2ccccc2n1Cc1ccccc1 | 10 µM [rising, partial curve, poor fit] |  |
| CCn1c(SCC(=O)c2c[nH]c3ccccc23)nc2cc(S(=O)(=O)N3CCOCC3)ccc21 | 18.4 µM [falling, single point] |  |
| O=C(CCCN1C(=O)/C(=C/c2ccccc2)SC1=S)Nc1ccccc1O | 5.01 µM [falling, partial curve, poor fit] |  |
| CC1=NN(c2ccccc2)C(=O)/C1=C/c1c(O)n(-c2ccc(F)c(Cl)c2)[nH]c1=O | 16.4 µM [falling, single point] |  |
| CN1CCN(C(=O)c2cc3c(s2)-c2ccccc2S(=O)(=O)C3)CC1 | 3.26 µM [falling, single point] |  |
| Cc1cc(NC(C)c2ccccc2)n2ncc(-c3ccccc3)c2n1 (stereo not drawn) | 7.94 µM [falling, single point] |  |
| CN(C)S(=O)(=O)c1ccc(NC(=O)N2CCN(c3cccc(C(F)(F)F)c3)CC2)cc1 | 29.1 µM [falling, single point] |  |
| Cc1ccccc1NC(=O)Cn1c(=O)sc2ccccc21 | 35.5 µM [rising, single point] |  |
| N#C/C(=C\c1ccccc1O)C(=O)Nc1cccnc1 | 10 µM [falling, partial curve, poor fit] |  |
| CCOC(=O)c1ccc(NC(=O)Nc2cc(C)cc(C)n2)cc1 | 0.112 µM [falling, full curve, poor fit] |  |
| CCCc1nnc(NC(=O)CCC(=O)N2CCN(S(=O)(=O)c3ccc(C)cc3)CC2)s1 | 0.562 µM [rising, full curve, poor fit] |  |
| CCC(=O)OCc1c(C(F)(F)F)nn(C)c1Sc1ccc(Cl)cc1 | 0.708 µM [rising, full curve, poor fit] |  |
| CC(=O)COc1ccccc1OC(=O)c1ccco1 | 29.1 µM [rising, single point] |  |
| CC(NC(=O)CCl)c1ccccc1Br (stereo not drawn) | 3.16 µM [falling, partial curve, poor fit] |  |
| O=C(c1cccnc1)n1nc(-c2ccco2)nc1NCc1cccs1 | 35.5 µM [falling, single point] |  |
| O=C(Nc1ccc(-c2cnco2)cc1)c1ccccc1 | 2 µM [falling, full curve, poor fit] |  |
| C=CCN1CC(C(=O)N2CCC(Cc3ccc(Cl)cc3)(C(=O)OCC)CC2)CC1=O (stereo not drawn) | 3.55 µM [rising, partial curve, poor fit] |  |
| COc1ccc(N(C(=O)c2ccc(Cl)cc2)C2=CC3CCC(C2)N3C)cc1 (stereo not drawn) | 3.26 µM [falling, single point] |  |
| O=C(O)CCCCCNC(=O)c1ccccc1 | 23.1 µM [falling, single point] | 23.1 µM [rising, partial curve, poor fit] |

19 entries out of the list, ordered by heavy-atom count, smallest number first.

| SMILES | AC50 [1] | AC50 [2] |
| --- | --- | --- |
| CC(NC(=O)CCl)c1ccccc1Br (stereo not drawn) | 3.16 µM [falling, partial curve, poor fit] |  |
| O=C(O)CCCCCNC(=O)c1ccccc1 | 23.1 µM [falling, single point] | 23.1 µM [rising, partial curve, poor fit] |
| C/C=C/c1ccccc1OCc1ccc(C(=O)O)o1 | 29.1 µM [falling, single point] |  |
| O=C(Nc1ccc(-c2cnco2)cc1)c1ccccc1 | 2 µM [falling, full curve, poor fit] |  |
| Cc1ccccc1NC(=O)Cn1c(=O)sc2ccccc21 | 35.5 µM [rising, single point] |  |
| Cc1nc2ccccc2c(N)c1C(=O)/C=C/c1ccccc1 | 8.91 µM [falling, partial curve, poor fit] |  |
| CCOC(=O)c1ccc(NC(=O)Nc2cc(C)cc(C)n2)cc1 | 0.112 µM [falling, full curve, poor fit] |  |
| O=C(N/N=C/c1c[nH]c2ccccc12)C1COc2ccccc2O1 (stereo not drawn) | 23.1 µM [rising, partial curve, poor fit] |  |
| Cc1cc(NC(C)c2ccccc2)n2ncc(-c3ccccc3)c2n1 (stereo not drawn) | 7.94 µM [falling, single point] |  |
| Cc1ccc(-n2nc(C)c3c2OC(N)=C(C#N)C3c2ccc(C)o2)cc1 (stereo not drawn) | 18.4 µM [falling, partial curve, poor fit] |  |
| COc1ccc(N(C(=O)c2ccc(Cl)cc2)C2=CC3CCC(C2)N3C)cc1 (stereo not drawn) | 3.26 µM [falling, single point] |  |
| C=CCn1c(CNC(=O)c2ccco2)nnc1SCC(=O)c1ccc(F)cc1 | 12.6 µM [falling, partial curve, poor fit] |  |
| CC1=NN(c2ccccc2)C(=O)/C1=C/c1c(O)n(-c2ccc(F)c(Cl)c2)[nH]c1=O | 16.4 µM [falling, single point] |  |
| C=CCN1CC(C(=O)N2CCC(Cc3ccc(Cl)cc3)(C(=O)OCC)CC2)CC1=O (stereo not drawn) | 3.55 µM [rising, partial curve, poor fit] |  |
| COc1ccc(/C=N/NC(=O)c2ccccc2Cl)cc1CSc1nc2ccccc2s1 | 11.6 µM [falling, partial curve] |  |
| CCn1c(SCC(=O)c2c[nH]c3ccccc23)nc2cc(S(=O)(=O)N3CCOCC3)ccc21 | 18.4 µM [falling, single point] |  |
| CCCN(CCC)CCNC(=O)C(NS(=O)(=O)c1ccc2c(c1)CCC(=O)N2)c1ccccc1 (stereo not drawn) | 3.66 µM [rising, single point] |  |
| COc1cc(SC)ccc1C(=O)OCC(=O)NCCNC(=O)COC(=O)c1ccc(SC)cc1OC | 3.16 µM [falling, full curve] |  |
| COc1ccc(N2CCN(C(=O)c3ccc4c(c3)N(Cc3cccc(Cl)c3)C(=O)c3ccccc3S4(=O)=O)CC2)cc1 | 3.16 µM [rising, full curve] |  |

Going on with the list.

| SMILES | AC50 [1] | AC50 [2] |
| --- | --- | --- |
| O=C(NCc1ccc(F)cc1)c1cc(-c2ccncc2)nc2ccccc12 | 1.58 µM [rising, partial curve, poor fit] |  |
| O=C(Nc1ccc2nc(-c3ccco3)[nH]c2c1)c1ccco1 | 2.91 µM [falling, partial curve, poor fit] |  |
| COc1cc(CCC(=O)Nc2cnc3ccccc3c2)cc(OC)c1OC | 35.5 µM [falling, single point] |  |
| N#Cc1cccnc1Nc1cccc(Cl)c1 | 20.6 µM [rising, single point] |  |
| COc1ccc(OC)c(N=CC2=C(O)CC(C)(C)CC2=O)c1 | 18.4 µM [rising, partial curve, poor fit] | 16.4 µM [falling, partial curve, poor fit] |
| Clc1ccc(OCc2cn3cccnc3n2)c2ncccc12 | 4.11 µM [rising, partial curve, poor fit] |  |
| CN1CCN(/N=C/c2c3ccccc3c(Cl)c3ccccc23)CC1 |  | 22.4 µM [falling, partial curve, poor fit] |
| C/C(O)=C\c1nc2ccccc2oc1=O | 3.16 µM [falling, full curve] |  |
| O=C1NCCCC1C(=O)N/N=C/c1cccc(Cl)c1 (stereo not drawn) | 35.5 µM [falling, single point] |  |
| CC1(C)CC(=O)c2sc(NC(=O)C(C)(C)C)nc2C1 | 12.6 µM [falling, partial curve, poor fit] |  |
| C/C(CC(=O)Nc1ccc(F)cc1F)=N\NC(=O)C(=O)N1CCCCC1 | 3.16 µM [falling, partial curve, poor fit] |  |
| COc1ccc(Cc2c(Cl)ncnc2Cl)cc1 | 14.6 µM [falling, single point] |  |
| CCc1c(C)sc(NC(=O)c2ccco2)c1C#N | 3.55 µM [rising, full curve] |  |
| O=C(NCC1CCCO1)c1cccc(NC(=O)c2ccccc2)c1 (stereo not drawn) | 11.2 µM [falling, partial curve] |  |
| COCc1nnc(NC(=O)c2ccc(OC)cc2OC)s1 | 35.5 µM [falling, single point] |  |
| CC/C(Cc1ccccc1)=N/NC(=O)c1cccc(Br)c1 | 11.6 µM [falling, partial curve, poor fit] |  |
| O=C(c1ccccn1)c1ccc2ccccc2n1 | 11.2 µM [rising, single point] |  |
| Cc1csc2nc(O)c(C(=O)NC3CCCCC3)c(=O)n12 | 23.1 µM [falling, single point] |  |
| COc1cccc(C(=O)NNC(=O)c2ccccc2)c1 | 10 µM [falling, partial curve] |  |
| COc1cc(C2OC(=O)c3ccccc3S2)cc(OC)c1OC (stereo not drawn) | 35.5 µM [rising, single point] |  |
